Results taken from patent US20230263800A1, “COMPOSITIONS AND METHODS TO PROMOTE THYMIC FUNCTION” (Fred Hutchinson Cancer Center, priority 2020, published 2023).
Structures can show the parent of a compound that is named as a salt. For at least one compound, name, drawing or mass did not settle the structure.

Tested on: C57BL/6 mice given sublethal TBI
Assay: Thymic regeneration after sublethal total body irradiation (SL-TBI, 550 cGy)
Format: in vivo, mouse
Settings: Dorsomorphin dihydrochloride 12.5 mg/kg ip day -1 and twice daily after TBI, mice on ZnSO4, day 10
From the text: FIGS. 4A-4G. […] (4A, 4B) 6-8 week-old female C57BL/6 mice were fed a normal or ZD diet for 21 days at which point mice were given a sublethal dose of total body irradiation (TBI, 550 cGy). (4A) Total thymic cellularity at days 7 and 14 after TBI (n=10/treatment/timepoint across two independent experiments). (4B) Total number of CD45-EpCAM^+MHCII^+UEA1^loLy51^hi (cTECs) and CD45^− EpCAM^+MHCII^+UEA1^hi Ly51^lo (mTECs) at days 7 and 14 after TBI (n=10/treatment/timepoint across two independent experiments). (4C) 6-12 week-old female BALB.B mice were fed with normal or ZD diet for 21 days, at which point mice were given a lethal dose of TBI (900cGy) and 10×10^6 T cell-depleted bone marrow (BM) cells from 6-8 week-old C57BL/6. One cohort also received 2×10^6 T cells to induce graft versus host disease (GVHD); thymic cellularity was quantified on day 14 after allogeneic hematopoietic stem cell transplant (allo-HCT, n=5-6/group). (4D) 6-8 week-old female C57BL/6 mice were fed with normal or ZD diet for 21 days at which point mice were given 550 cGy TBI and total thymus cellularity quantified on day 14. […] (4E) Total thymic cellularity. (4F) Total number of cTECs and mTECs. (4G) Total number of Ki-67+ thymic endothelial cells (TECs). […]

c1cc(-c2cnn3cc(-c4ccc(OCCN5CCCCC5)cc4)cnc23)ccn1 [dorsomorphin dihydrochloride]
effect on ZS-driven thymic regeneration (total thymus cellularity): abrogated the effect of ZS on thymic regeneration
